# The supplement of paper PMC8288183
# The other results are listed elsewhere or left out. Single values are uncertain, as repeats are few or missing.
# Target: T1, NSUN6 (UniProt Q8TEA1)
# T1 sequence: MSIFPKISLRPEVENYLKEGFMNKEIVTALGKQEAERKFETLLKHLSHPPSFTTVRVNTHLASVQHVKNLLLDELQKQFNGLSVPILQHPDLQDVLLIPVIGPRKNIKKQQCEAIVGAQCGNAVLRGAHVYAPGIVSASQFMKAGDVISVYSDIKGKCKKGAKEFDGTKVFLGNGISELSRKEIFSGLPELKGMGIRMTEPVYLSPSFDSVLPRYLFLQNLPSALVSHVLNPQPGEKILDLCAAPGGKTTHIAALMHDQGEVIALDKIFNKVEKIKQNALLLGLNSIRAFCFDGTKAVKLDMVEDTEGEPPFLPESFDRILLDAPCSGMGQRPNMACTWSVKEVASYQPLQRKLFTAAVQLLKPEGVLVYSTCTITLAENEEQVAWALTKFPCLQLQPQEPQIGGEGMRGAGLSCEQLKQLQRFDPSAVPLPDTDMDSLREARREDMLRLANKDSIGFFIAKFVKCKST
# Test: m5C methylation level at the target C (C/(C+U) bisulfite reads) (fraction); higher = more methylation by NSUN6; extreme values may be limits of the assay
# Conditions: HEK293T (wild-type)
# Description: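 High-throughput mutagenesis reporter. About 140 bp oligo-pool variants of four natural Type II m5C substrates (substrate #1 chr15:91425541; #2 RAB15 3'UTR chr14:65413377; #3 SULT2A1 5'UTR chr19:48389569; #4 NAAA CDS chr4:76857361) were cloned as 3'UTR elements of psiCHECK-2 luciferase and transfected into wild-type HEK293T cells. Total RNA was taken 48 h later and m5C level was measured by targeted bisulfite sequencing as C/(C+U) reads at the m5C site (one library).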
# [1] = parent substrate: substrate #1 (main figure)
Sequence,m5C methylation level at the target C [1],m5C methylation level at the target C (parent substrate: substrate #2),m5C methylation level at the target C (parent substrate: substrate #3),m5C methylation level at the target C (parent substrate: substrate #4)
CCGAUC,0,0.00147,0,0.00219
GCCAAG,0.0013,0,0.00527,0.00385
UCAUCG,0,0,0.000533,0
GCGCGA,0.00135,0.00105,0.00388,0.00778
CCCCCU,0.00724,0,0.00134,0
GCAGAG,0.000906,0.00131,0.00379,0
CCCUGU,0,0.000844,0.000739,0
GCGACC,0.000927,0.00433,0,0.000837
ACCGAG,0,0.00125,0.00121,0
ACAGGG,0,0,0.00123,0.00372
GCUUCC,0.00212,0.000827,0.00348,0.00123
CCUUAU,0,0.00551,0.000487,0.000991
CCCAGU,0,0.00413,0.00131,0
ACAUAC,0,0,0,0
UCCAAG,0.00154,0,0.00756,0.00155
GCAAUC,0.00081,0.000986,0.00697,0
CCCACA,0,0.00234,0.00137,0.000661
ACGCAC,0.000481,0,0,0.0142
ACGUUG,0.00185,0.00348,0.00704,0
CCGGCC,0,0,0.0058,0.00111
UCAUUC,0.0047,0,0,0.0011
GCAAAG,0.00161,0.00425,0.00375,0.00776
ACGACA,0.00633,0.00606,0.00143,0
CCGGAU,0.000851,0,0.000722,0.00185

Sequence,m5C methylation level at the target C [1],m5C methylation level at the target C (parent substrate: substrate #2),m5C methylation level at the target C (parent substrate: substrate #3),m5C methylation level at the target C (parent substrate: substrate #4)
UCACCG,0.0074,0,0.00522,0
ACGUAA,0,0,0.00201,0.00577
UCUUGA,0,0.00111,0.00137,0
GCUCAU,0,0.00551,0.00348,0.00206
GCCCGU,0,0,0.00167,0.000977
ACUCGC,0.000759,0,0.000621,0.0108
UCAUGG,0.00139,0.000864,0.000586,0.00125
UCAAUC,0,0,0.00225,0.000892
CCGUGA,0.00188,0.0158,0,0.00258
UCUGGC,0.00121,0,0.000804,0.00233
ACUCUC,0.00671,0.00086,0,0.000953
CCCAGA,0.00216,0,0.00173,0
ACUUUU,0.000662,0,0.00585,0.00137
UCAGCU,0,0,0,0.00182
CCACAA,0,0.00109,0.00865,0
GCGGCA,0.0149,0.0018,0.00205,0.0094
UCCAUG,0,0.00513,0.000817,0.000526
CCUCCG,0.000804,0,0,0.000852
ACUCAU,0,0.00176,0,0.00328
ACAAUA,0.00244,0.00245,0.000888,0
UCCCCU,0,0.00614,0.001,0
CCCAUC,0,0.00149,0.000934,0.00105
UCCAUC,0.00439,0.00204,0,0.000844
UCACGG,0,0,0,0.00631

Sequence,m5C methylation level at the target C [1],m5C methylation level at the target C (parent substrate: substrate #2),m5C methylation level at the target C (parent substrate: substrate #3),m5C methylation level at the target C (parent substrate: substrate #4)
CCUAGU,0,0,0.00122,0
CCGGUG,0.00772,0,0.00476,0.00174
UCAACC,0,0,0.000625,0.000521
ACUUGC,0.000521,0,0.000508,0
UCGCAA,0,0,0.00104,0.00288
CCGAAC,0.00189,0.00803,0.00179,0.00136
UCCUGU,0,0,0,0.00132
UCUCAC,0.00141,0,0.00381,0.000419
GCGGUA,0,0,0.00244,0.0022
UCUCGG,0.00158,0.00133,0.0118,0.00106
CCCGGU,0.000515,0.00197,0.00629,0
UCGCGC,0.00165,0,0.000814,0.000768
UCUGAC,0.000945,0.00123,0,0.00141
ACCAAU,0,0.0155,0,0
GCUACG,0.0114,0.00159,0.0125,0.00119
GCUCGG,0,0.00173,0.00226,0.00266
GCCCUG,0,0.0125,0.00174,0.00308
UCUAUU,0.000891,0,0,0.00255
GCUUAC,0.00153,0,0,0
UCGCGU,0,0.00172,0.00135,0.000794
UCAUUU,0,0.000986,0,0.00374
CCCAAC,0.00441,0,0.00163,0.00996
GCAUGA,0.00638,0,0,0.00918
ACGUCG,0.00235,0.00126,0.00564,0.00141

Sequence,m5C methylation level at the target C [1],m5C methylation level at the target C (parent substrate: substrate #2),m5C methylation level at the target C (parent substrate: substrate #3),m5C methylation level at the target C (parent substrate: substrate #4)
CCUGUU,0.000808,0,0.00139,0.00128
CCGUAU,0.00478,0.00202,0,0.00583
GCGUGC,0.0513,0.00197,0.00238,0.000885
ACCUCC,0.00138,0.00666,0.0102,0.00498
CCACGG,0,0,0.000398,0
UCUGGA,0,0.000908,0.000519,0
GCAUGU,0.00211,0.00134,0.000621,0.00117
GCUGUG,0.00138,0,0.00337,0
GCAUAG,0.000677,0,0.0026,0.000962
CCUAUA,0.00152,0,0.000618,0.00397
UCCGAC,0,0.00149,0.00126,0
CCCCGA,0.000915,0,0.00062,0.00443
ACUCAG,0.000561,0,0.002,0.000661
GCGUGG,0.00577,0.00152,0.00508,0
ACACAU,0,0,0,0
UCCAAA,0,0,0,0
UCCCAG,0.00414,0.00186,0,0
CCGUUC,0,0.00394,0.00139,0.00242
ACCCUC,0.00058,0.00391,0.00358,0
UCGUCA,0,0,0.00129,0.00187
ACGAGC,0.00871,0.00102,0,0.00118

# Whole records, quoted from the list. Values in the order: m5C methylation level at the target C [1] | m5C methylation level at the target C (parent substrate: substrate #2) | m5C methylation level at the target C (parent substrate: substrate #3) | m5C methylation level at the target C (parent substrate: substrate #4)
# ACGAGC is listed as 0.00871 | 0.00102 | 0 | 0.00118
# GCAUGU is listed as 0.00211 | 0.00134 | 0.000621 | 0.00117
# ACACAU is listed as 0 | 0 | 0 | 0
# UCUGGA is listed as 0 | 0.000908 | 0.000519 | 0
